Some compounds share one range, which may span the group rather than tell each member.
Test system: MDA-MB-468 (TNBC) cells
Test: Cell surface HLA-bound peptidyl-citrullinome by mass spectrometry, MDA-MB-468
Assay type: cell-based, human
Details: mild acid elution, LC-MS/MS, FDR=0.01; class by peptide length

Row | Substance | Cell surface MHC binding citrullinated peptide identified in MDA-MB-468 (TNBC)
1 | AEKWTTVPR*QHVCVESTDR*QIKTIRPN (AEKWTTVPRQHVCVESTDRQIKTIRPN; citrulline at R9 and R19; MOD_RES (9)..(9) Citrullinated Arginine; MOD_RES (19)..(19) Citrullinated Arginine) [SEQ ID NO: 78, PCSK5 peptide, R9(Cit.); R19(Cit.)] | MHC-II (from 12 to 34 as MHC-IU binding peptides)
2 | EAVSHTSDMHR*GYADSPSKAGAAPYVQAF (EAVSHTSDMHRGYADSPSKAGAAPYVQAF; citrulline at R11; MOD_RES (11)..(11) Citrullinated Arginine) [SEQ ID NO: 20, CAP1 peptide, R11(Cit.)] | MHC-II (from 12 to 34 as MHC-IU binding peptides)
3 | ELEAER*STNIAAAASEPHS (ELEAERSTNIAAAASEPHS; citrulline at R6; MOD_RES (6)..(6) Citrullinated Arginine) [SEQ ID NO: 53, HDDC2 peptide, R6(Cit.)] | MHC-II (from 12 to 34 as MHC-IU binding peptides)
4 | ENLIR*KHTGSGILSMANAGPNINGSQF [SEQ ID NO: 91] | MHC-II (from 12 to 34 as MHC-IU binding peptides)
5 | EVQALDDTER*GSGGFGSTGKN (EVQALDDTERGSGGFGSTGKN; citrulline at R10; MOD_RES (10)..(10) Citrullinated Arginine) [SEQ ID NO: 31, DUT peptide, R.10(Cit.)] | MHC-II (from 12 to 34 as MHC-IU binding peptides)
6 | FAKPR*NQGGYGGSSSSSSYGSGR*RF (FAKPRNQGGYGGSSSSSSYGSGRRF; citrulline at R5 and R23; MOD_RES (5)..(5) Citrullinated Arginine; MOD_RES (23)..(23) Citrullinated Arginine) [SEQ ID NO: 58, HNRNPA1 peptide, R5(Cit.); R23(Cit.)] | MHC-II (from 12 to 34 as MHC-IU binding peptides)
7 | FKSPDDPSR*YISPDQLADL (FKSPDDPSRYISPDQLADL; citrulline at R9; MOD_RES (9)..(9) Citrullinated Arginine) [SEQ ID NO: 41, ENO1 peptide, R9(Cit.)] | MHC-II (from 12 to 34 as MHC-IU binding peptides)
8 | FNKPDIDAWELR*KGINTL (FNKPDIDAWELRKGINTL; citrulline at R12; MOD_RES (12)..(12) Citrullinated Arginine) [SEQ ID NO: 28, COX5A peptide, R12(Cit.)] | MHC-II (from 12 to 34 as MHC-IU binding peptides)
9 | FTKTHPQWYPAR*QSL (FTKTHPQWYPARQSL; citrulline at R12; MOD_RES (12)..(12) Citrullinated Arginine) [SEQ ID NO: 129, TECR peptide, R12(Cit.)] | MHC-II (from 12 to 34 as MHC-IU binding peptides)
10 | FTR*HNGTGGKSIYGEKF (FTRHNGTGGKSIYGEKF; citrulline at R3; MOD_RES (3)..(3) Citrullinated Arginine) [SEQ ID NO: 90, PPIA peptide, R3(Cit.)] | MHC-II (from 12 to 34 as MHC-IU binding peptides)
11 | FVHLR*VFQSLPHENKPLTLSNYQTNKAKHDE (FVHLRVFQSLPHENKPLTLSNYQTNKAKHDE; citrulline at R5; MOD_RES (5)..(5) Citrullinated Arginine) [SEQ ID NO: 29, CSTB peptide, R5(Cit.)] | MHC-II (from 12 to 34 as MHC-IU binding peptides)
12 | GGTR*GANGGR*VPGNGAGLGPGR* (GGTRGANGGRVPGNGAGLGPGR; citrulline at R4, R10, R22; MOD_RES (4)..(4) Citrullinated Arginine; MOD_RES (10)..(10) Citrullinated Arginine; MOD_RES (22)..(22) Citrullinated Arginine) [SEQ ID NO: 121, SRF peptide, R4(Cit.); R10(Cit.); R22(Cit.)] | MHC-II (from 12 to 34 as MHC-IU binding peptides)
13 | GIYVKTIFAGGAAAADGR*LQEGDE (GIYVKTIFAGGAAAADGRLQEGDE; citrulline at R18; MOD_RES (18)..(18) Citrullinated Arginine) [SEQ ID NO: 60, IL16 peptide, R18(Cit.)] | MHC-II (from 12 to 34 as MHC-IU binding peptides)
14 | GLLDSHLIKEAGDAESR* (citrulline at R17; MOD_RES (17)..(17) Citrullinated Arginine) [SEQ ID NO: 119, SFN peptide, R17(Cit.)] | MHC-II (from 12 to 34 as MHC-IU binding peptides)
15 | GQENPQLLQQISR*HQEQF (GQENPQLLQQISRHQEQF; citrulline at R13; MOD_RES (13)..(13) Citrullinated Arginine) [SEQ ID NO: 107, RAD23A peptide, R13(Cit.)] | MHC-II (from 12 to 34 as MHC-IU binding peptides)
16 | HIQQNEALAAKAGLLGQPR* (citrulline at R19; MOD_RES (19)..(19) Citrullinated Arginine) [SEQ ID NO: 130, TIMM9 peptide, R19(Cit.)] | MHC-II (from 12 to 34 as MHC-IU binding peptides)

Row | Substance | Cell surface MHC binding citrullinated peptide identified in MDA-MB-468 (TNBC)
17 | HLGR*PDGVPMPDKYSLEPVAVELK (HLGRPDGVPMPDKYSLEPVAVELK; citrulline at R4; MOD_RES (4)..(4) Citrullinated Arginine) [SEQ ID NO: 81, PGK1 peptide, R4(Cit.)] | MHC-II (from 12 to 34 as MHC-IU binding peptides)
18 | IAQQMMPEVR*GALFGANANRKF (IAQQMMPEVRGALFGANANRKF; citrulline at R10; MOD_RES (10)..(10) Citrullinated Arginine) [SEQ ID NO: 9, ATP6V1E1 peptide, R10(Cit.)] | MHC-II (from 12 to 34 as MHC-IU binding peptides)
19 | IFPER*IDPNPADSQKSTQVE (IFPERIDPNPADSQKSTQVE; citrulline at R5; MOD_RES (5)..(5) Citrullinated Arginine) [SEQ ID NO: 131, TIPRL peptide, R5(Cit.)] | MHC-II (from 12 to 34 as MHC-IU binding peptides)
20 | INANR*ADAEEEAATRIPA (INANRADAEEEAATRIPA; citrulline at R5; MOD_RES (5)..(5) Citrullinated Arginine) [SEQ ID NO: 32, DYNC112 peptide, R5(Cit.)] | MHC-II (from 12 to 34 as MHC-IU binding peptides)
21 | IPR*ALAENSGVKANEVISKL (IPRALAENSGVKANEVISKL; citrulline at R3; MOD_RES (3)..(3) Citrullinated Arginine) [SEQ ID NO: 23, CCT8 peptide, R3(Cit.)] | MHC-II (from 12 to 34 as MHC-IU binding peptides)
22 | IREADVDQDGR*VNYE (IREADVDQDGRVNYE; citrulline at R11; MOD_RES (11)..(11) Citrullinated Arginine) [SEQ ID NO: 19, CALML5 peptide, R1I(Cit.)] | MHC-II (from 12 to 34 as MHC-IU binding peptides)
23 | ISWYDNEFGYSNR*VVD (ISWYDNEFGYSNRVVD; citrulline at R13; MOD_RES (13)..(13) Citrullinated Arginine) [SEQ ID NO: 49, GAPDH peptide, R13(Cit.)] | MHC-II (from 12 to 34 as MHC-IU binding peptides)
24 | ISWYDNEFGYSNR*VVDL (ISWYDNEFGYSNRVVDL; citrulline at R13; MOD_RES (13)..(13) Citrullinated Arginine) [SEQ ID NO: 48, GAPDH peptide, R13(Cit.)] | MHC-II (from 12 to 34 as MHC-IU binding peptides)
25 | KLEQSEAQLGR*GSF (KLEQSEAQLGRGSF; citrulline at R11; MOD_RES (11)..(11) Citrullinated Arginine) [SEQ ID NO: 27, COPS5 peptide, R11(Cit.)] | MHC-II (from 12 to 34 as MHC-IU binding peptides)
26 | KSVTEQGAELSNEER*NLL (KSVTEQGAELSNEERNLL; citrulline at R15; MOD_RES (15)..(15) Citrullinated Arginine) [SEQ ID NO: 134, YWHAZ peptide, R15(Cit.)] | MHC-II (from 12 to 34 as MHC-IU binding peptides)
27 | LAENGR*LSNTQGVVSAFS (LAENGRLSNTQGVVSAFS; citrulline at R6; MOD_RES (6)..(6) Citrullinated Arginine) [SEQ ID NO: 7, ATP5O peptide, R6(Cit.)] | MHC-II (from 12 to 34 as MHC-IU binding peptides)
28 | LAENGR*LSNTQGVVSAFSTM (LAENGRLSNTQGVVSAFSTM; citrulline at R6; MOD_RES (6)..(6) Citrullinated Arginine) [SEQ ID NO: 8, ATP5O peptide, R6(Cit.)] | MHC-II (from 12 to 34 as MHC-IU binding peptides)
29 | LALRKR*TPSAGKAMDTPKPAVSDEKNINTF (LALRKRTPSAGKAMDTPKPAVSDEKNINTF; citrulline at R6; MOD_RES (6)..(6) Citrullinated Arginine) [SEQ ID NO: 67, MK167 peptide, R6(Cit.)] | MHC-II (from 12 to 34 as MHC-IU binding peptides)
30 | LAR*ELPAAVAPAGPASLAR*WTLG (LARELPAAVAPAGPASLARWTLG; citrulline at R3 and R19; MOD_RES (3)..(3) Citrullinated Arginine; MOD_RES (19)..(19) Citrullinated Arginine) [SEQ ID NO: 82, PGLS peptide, R3(Cit.); R19(Cit.)] | MHC-II (from 12 to 34 as MHC-IU binding peptides)
31 | LETADGESMNTEESNQGSTPSDQQQNKLR* (citrulline at R29; MOD_RES (29)..(29) Citrullinated Arginine) [SEQ ID NO: 99, PPP1R2P3 peptide, R29(Cit.)] | MHC-II (from 12 to 34 as MHC-IU binding peptides)

— patent US20240201191A1, “CITRULLINATED PROTEINS AS BIOMARKERS AND THERAPY TARGETS FOR CANCER” (BOARD OF REGENTS, THE UNIVERSITY OF TEXAS SYSTEM, priority 2022, published 2024)
